# Test results published in PMC6599078.
# Amino acid sequences for entries named in this document (tags omitted).
# UniProt P54252: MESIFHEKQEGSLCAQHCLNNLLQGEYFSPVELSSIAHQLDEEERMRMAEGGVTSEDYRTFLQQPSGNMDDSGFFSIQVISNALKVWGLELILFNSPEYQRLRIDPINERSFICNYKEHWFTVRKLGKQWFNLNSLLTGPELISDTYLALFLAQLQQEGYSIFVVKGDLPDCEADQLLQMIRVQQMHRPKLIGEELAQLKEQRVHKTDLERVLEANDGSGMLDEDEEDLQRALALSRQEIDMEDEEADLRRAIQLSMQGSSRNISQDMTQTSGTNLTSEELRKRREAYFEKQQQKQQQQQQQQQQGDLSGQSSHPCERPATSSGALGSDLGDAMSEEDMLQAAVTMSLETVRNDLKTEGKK
# These are yes or no findings as the source states them, for the method shown. For part of these data: In cells and extracts the contact can be indirect. Some results given as binding are weak or reduced against the parent protein; the word gives no strength. For part of these data: Where a sequence is shown, tags or fusion partners need not be part of it.
# T1: TSPAN8 (immunoprecipitated for mass spectrometry and for the co-immunoprecipitation with ATXN3) (UniProt P19075)
# T1 sequence: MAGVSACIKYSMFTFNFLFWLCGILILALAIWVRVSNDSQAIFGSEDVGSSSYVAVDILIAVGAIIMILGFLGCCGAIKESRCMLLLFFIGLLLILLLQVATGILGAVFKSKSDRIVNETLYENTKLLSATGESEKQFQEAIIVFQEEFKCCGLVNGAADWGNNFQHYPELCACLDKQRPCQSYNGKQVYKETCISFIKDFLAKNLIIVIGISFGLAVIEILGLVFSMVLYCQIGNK
# T2: endogenous TSPAN8 (human (endogenous in MCF7)) (UniProt P19075)
# T2 sequence: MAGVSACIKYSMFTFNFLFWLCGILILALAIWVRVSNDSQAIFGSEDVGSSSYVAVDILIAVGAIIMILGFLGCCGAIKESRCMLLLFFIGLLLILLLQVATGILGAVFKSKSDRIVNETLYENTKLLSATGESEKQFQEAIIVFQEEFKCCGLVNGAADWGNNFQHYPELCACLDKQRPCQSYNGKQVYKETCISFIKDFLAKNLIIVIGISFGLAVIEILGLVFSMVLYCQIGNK
# Columns and labels:
# [1] = target: T1, TSPAN8 (immunoprecipitated for mass spectrometry and for the co-immunoprecipitation with ATXN3); assay: co-IP; co-immunoprecipitation of TSPAN8 and ATXN3 (Supplementary Fig. 4g-h); constructs and cells not stated
# [2] = target: T2, endogenous TSPAN8 (human (endogenous in MCF7)); assay: co-IP; MCF7 cell lysates immunoprecipitated with control rabbit IgG or anti-TSPAN8, immunoblotted with anti-SHH or anti-PTCH1; endogenous proteins
# GST-ATXN3 = GST-ATXN3 (UniProt P54252); assay: pull-down; GST pulldown with purified GST-ATXN3 and His-TSPAN8 or His-PTCH1 (Supplementary Fig. 4i); both purified
molecule,measurement,setting,value
ATXN3 (found with immunoprecipitated TSPAN8) (from UniProt P54252 1-361) (enzyme),binding,[1],binds
"endogenous PTCH1 (receptor, UniProt Q13635 1-1447) MASAGNAAEPQDRGGGGSGCIGAPGRPAGGGRRRRTGGLRRAAAPDRDYLHRPSYCDAAFALEQISKGKATGRKAPLWLRAKFQRLLFKLGCYIQKNCGKFLVVGLLIFGAFAVGLKAANLETNVEELWVEVGGRVSRELNYTRQKIGEEAMFNPQLMIQTPKEEGANVLTTEALLQHLDSALQASRVHVYMYNRQWKLEHLCYKSGELITETGYMDQIIEYLYPCLIITPLDCFWEGAKLQSGTAYLLGKPPLRWTNFDPLEFLEELKKINYQVDSWEEMLNKAEVGHGYMDRPCLNPADPDCPATAPNKNSTKPLDMALVLNGGCHGLSRKYMHWQEELIVGGTVKNSTGKLVSAHALQTMFQLMTPKQMYEHFKGYEYVSHINWNEDKAAAILEAWQRTYVEVVHQSVAQNSTQKVLSFTTTTLDDILKSFSDVSVIRVASGYLLMLAYACLTMLRWDCSKSQGAVGLAGVLLVALSVAAGLGLCSLIGISFNAATTQVLPFLALGVGVDDVFLLAHAFSETGQNKRIPFEDRTGECLKRTGASVALTSISNVTAFFMAALIPIPALRAFSLQAAVVVVFNFAMVLLIFPAILSMDLYRREDRRLDIFCCFTSPCVSRVIQVEPQAYTDTHDNTRYSPPPPYSSHSFAHETQITMQSTVQLRTEYDPHTHVYYTTAEPRSEISVQPVTVTQDTLSCQSPESTSSTRDLLSQFSDSSLHCLEPPCTKWTLSSFAEKHYAPFLLKPKAKVVVIFLFLGLLGVSLYGTTRVRDGLDLTDIVPRETREYDFIAAQFKYFSFYNMYIVTQKADYPNIQHLLYDLHRSFSNVKYVMLEENKQLPKMWLHYFRDWLQGLQDAFDSDWETGKIMPNNYKNGSDDGVLAYKLLVQTGSRDKPIDISQLTKQRLVDADGIINPSAFYIYLTAWVSNDPVAYAASQANIRPHRPEWVHDKADYMPETRLRIPAAEPIEYAQFPFYLNGLRDTSDFVEAIEKVRTICSNYTSLGLSSYPNGYPFLFWEQYIGLRHWLLLFISVVLACTFLVCAVFLLNPWTAGIIVMVLALMTVELFGMMGLIGIKLSAVPVVILIASVGIGVEFTVHVALAFLTAIGDKNRRAVLALEHMFAPVLDGAVSTLLGVLMLAGSEFDFIVRYFFAVLAILTILGVLNGLVLLPVLLSFFGPYPEVSPANGLNRLPTPSPEPPPSVVRFAMPPGHTHSGSDSSDSEYSSQTTVSGLSEELRHYEAQQGAGGPAHQVIVEATENPVFAHSTVVHPESRHHPPSNPRQQPHLDSGSLPPGRQGQQPRRDPPREGLWPPPYRPRRDAFEISTEGHSGPSNRARWGPRGARSHNPRNPASTAMGSSVPGYCQPITTVTASASVTVAVHPPPVPGPGRNPRGGLCPGYPETDHGLFEDPHVPFHVRCERRDSKVEVIELQDVECEERPRGSSSN",binding,[2],binds
"His-TSPAN8 (protein, UniProt P19075 1-237) MAGVSACIKYSMFTFNFLFWLCGILILALAIWVRVSNDSQAIFGSEDVGSSSYVAVDILIAVGAIIMILGFLGCCGAIKESRCMLLLFFIGLLLILLLQVATGILGAVFKSKSDRIVNETLYENTKLLSATGESEKQFQEAIIVFQEEFKCCGLVNGAADWGNNFQHYPELCACLDKQRPCQSYNGKQVYKETCISFIKDFLAKNLIIVIGISFGLAVIEILGLVFSMVLYCQIGNK",binding,GST-ATXN3,binds
